No constants are given. Whether binding was seen depends on the method and setting. For some of these results: Binding seen in cells or lysates may run through a third protein. Some results given as binding are weak or reduced against the parent protein; the word gives no strength.
T1: Anion exchange protein 2 (mouse (endogenous in choroid plexus)) (UniProt P13808)
T1 sequence: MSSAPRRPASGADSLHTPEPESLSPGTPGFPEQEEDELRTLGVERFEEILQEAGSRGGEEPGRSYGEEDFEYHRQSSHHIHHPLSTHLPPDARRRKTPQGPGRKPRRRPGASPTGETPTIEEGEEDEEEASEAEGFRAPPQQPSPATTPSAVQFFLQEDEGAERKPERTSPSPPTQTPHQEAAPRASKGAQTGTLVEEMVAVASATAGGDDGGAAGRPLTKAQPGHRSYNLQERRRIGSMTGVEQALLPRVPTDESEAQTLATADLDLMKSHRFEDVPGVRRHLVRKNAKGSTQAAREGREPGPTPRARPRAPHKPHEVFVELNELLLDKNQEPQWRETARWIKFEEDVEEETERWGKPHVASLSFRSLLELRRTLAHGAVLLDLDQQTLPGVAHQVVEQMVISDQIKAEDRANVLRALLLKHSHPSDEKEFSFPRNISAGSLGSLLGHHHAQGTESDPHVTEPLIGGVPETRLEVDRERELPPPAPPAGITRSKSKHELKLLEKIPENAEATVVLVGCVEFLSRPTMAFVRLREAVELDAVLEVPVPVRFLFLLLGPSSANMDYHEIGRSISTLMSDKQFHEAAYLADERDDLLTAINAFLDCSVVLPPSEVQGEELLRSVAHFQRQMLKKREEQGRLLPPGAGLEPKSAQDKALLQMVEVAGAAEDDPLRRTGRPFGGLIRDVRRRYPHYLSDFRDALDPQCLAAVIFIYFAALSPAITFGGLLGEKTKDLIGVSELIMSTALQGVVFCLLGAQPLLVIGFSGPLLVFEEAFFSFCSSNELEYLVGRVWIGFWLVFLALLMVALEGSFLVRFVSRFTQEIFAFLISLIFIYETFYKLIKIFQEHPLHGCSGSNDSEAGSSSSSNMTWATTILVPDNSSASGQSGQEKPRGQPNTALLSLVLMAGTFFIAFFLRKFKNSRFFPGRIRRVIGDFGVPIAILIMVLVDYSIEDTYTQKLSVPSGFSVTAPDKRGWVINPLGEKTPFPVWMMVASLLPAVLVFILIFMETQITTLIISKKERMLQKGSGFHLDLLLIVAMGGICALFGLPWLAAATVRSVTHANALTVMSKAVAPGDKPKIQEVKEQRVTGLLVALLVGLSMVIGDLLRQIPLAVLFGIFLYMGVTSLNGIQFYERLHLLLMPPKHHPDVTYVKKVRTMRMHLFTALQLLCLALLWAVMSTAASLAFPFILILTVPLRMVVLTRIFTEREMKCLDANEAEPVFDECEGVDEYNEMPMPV

Sequences of proteins named here, by UniProt entry; tags and fusion partners are left off.
UniProt Q62261: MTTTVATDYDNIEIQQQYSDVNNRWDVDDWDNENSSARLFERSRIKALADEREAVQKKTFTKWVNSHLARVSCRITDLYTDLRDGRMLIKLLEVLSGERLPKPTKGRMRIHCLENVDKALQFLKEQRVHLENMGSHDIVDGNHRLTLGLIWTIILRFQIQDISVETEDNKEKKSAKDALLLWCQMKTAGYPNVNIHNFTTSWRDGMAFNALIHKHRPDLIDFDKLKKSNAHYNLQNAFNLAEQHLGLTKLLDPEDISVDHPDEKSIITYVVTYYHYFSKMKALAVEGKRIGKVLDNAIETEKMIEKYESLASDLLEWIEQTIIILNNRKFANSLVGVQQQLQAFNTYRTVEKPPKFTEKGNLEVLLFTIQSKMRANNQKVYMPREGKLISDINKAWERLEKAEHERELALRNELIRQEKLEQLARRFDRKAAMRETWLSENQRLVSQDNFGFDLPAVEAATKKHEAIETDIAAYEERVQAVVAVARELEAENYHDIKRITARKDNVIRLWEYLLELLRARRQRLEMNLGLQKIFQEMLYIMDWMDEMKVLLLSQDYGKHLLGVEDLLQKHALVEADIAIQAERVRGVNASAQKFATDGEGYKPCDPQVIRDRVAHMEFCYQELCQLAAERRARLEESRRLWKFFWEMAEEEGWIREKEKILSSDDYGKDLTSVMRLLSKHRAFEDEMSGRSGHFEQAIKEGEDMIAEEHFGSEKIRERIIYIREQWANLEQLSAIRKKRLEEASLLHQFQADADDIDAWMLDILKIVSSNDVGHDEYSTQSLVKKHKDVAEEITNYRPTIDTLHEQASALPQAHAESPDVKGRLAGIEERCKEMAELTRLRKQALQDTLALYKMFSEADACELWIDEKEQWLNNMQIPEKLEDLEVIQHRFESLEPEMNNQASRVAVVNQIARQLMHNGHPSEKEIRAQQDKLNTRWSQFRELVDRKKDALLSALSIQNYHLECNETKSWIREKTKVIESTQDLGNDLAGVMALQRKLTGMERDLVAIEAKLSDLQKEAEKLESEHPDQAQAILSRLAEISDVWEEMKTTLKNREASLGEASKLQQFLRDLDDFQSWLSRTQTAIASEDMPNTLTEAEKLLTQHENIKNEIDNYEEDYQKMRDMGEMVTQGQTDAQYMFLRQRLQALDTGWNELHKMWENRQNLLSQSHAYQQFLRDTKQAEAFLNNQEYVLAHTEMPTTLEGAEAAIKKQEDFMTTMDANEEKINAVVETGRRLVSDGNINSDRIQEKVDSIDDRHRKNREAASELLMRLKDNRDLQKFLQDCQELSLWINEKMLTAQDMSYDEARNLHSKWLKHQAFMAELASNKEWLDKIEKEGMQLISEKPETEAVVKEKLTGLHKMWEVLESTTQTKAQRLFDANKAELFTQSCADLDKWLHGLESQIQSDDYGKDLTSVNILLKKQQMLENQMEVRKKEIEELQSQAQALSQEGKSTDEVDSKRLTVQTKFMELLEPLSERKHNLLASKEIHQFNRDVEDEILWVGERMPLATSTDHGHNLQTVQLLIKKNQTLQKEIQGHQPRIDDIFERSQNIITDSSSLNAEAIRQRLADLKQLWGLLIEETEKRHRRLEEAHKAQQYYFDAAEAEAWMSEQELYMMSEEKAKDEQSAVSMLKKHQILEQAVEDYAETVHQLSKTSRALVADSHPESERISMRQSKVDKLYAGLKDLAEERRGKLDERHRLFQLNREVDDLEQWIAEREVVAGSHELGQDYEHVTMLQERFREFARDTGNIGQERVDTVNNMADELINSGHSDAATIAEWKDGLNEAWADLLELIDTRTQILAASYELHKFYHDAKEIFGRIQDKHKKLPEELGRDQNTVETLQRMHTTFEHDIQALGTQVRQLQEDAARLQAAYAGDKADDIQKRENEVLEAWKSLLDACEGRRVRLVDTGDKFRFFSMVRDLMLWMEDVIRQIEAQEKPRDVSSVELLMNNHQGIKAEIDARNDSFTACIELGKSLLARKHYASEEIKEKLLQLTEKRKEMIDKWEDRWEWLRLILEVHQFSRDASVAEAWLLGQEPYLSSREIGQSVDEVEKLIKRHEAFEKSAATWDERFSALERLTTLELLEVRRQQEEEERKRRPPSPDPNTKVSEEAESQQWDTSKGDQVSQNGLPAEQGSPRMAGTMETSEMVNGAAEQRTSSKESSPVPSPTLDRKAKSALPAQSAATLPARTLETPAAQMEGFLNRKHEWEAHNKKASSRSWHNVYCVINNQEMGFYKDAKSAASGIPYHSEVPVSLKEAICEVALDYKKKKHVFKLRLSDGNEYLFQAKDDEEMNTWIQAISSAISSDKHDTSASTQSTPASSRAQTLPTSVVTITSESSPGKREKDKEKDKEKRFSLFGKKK
UniProt Q9EPK8: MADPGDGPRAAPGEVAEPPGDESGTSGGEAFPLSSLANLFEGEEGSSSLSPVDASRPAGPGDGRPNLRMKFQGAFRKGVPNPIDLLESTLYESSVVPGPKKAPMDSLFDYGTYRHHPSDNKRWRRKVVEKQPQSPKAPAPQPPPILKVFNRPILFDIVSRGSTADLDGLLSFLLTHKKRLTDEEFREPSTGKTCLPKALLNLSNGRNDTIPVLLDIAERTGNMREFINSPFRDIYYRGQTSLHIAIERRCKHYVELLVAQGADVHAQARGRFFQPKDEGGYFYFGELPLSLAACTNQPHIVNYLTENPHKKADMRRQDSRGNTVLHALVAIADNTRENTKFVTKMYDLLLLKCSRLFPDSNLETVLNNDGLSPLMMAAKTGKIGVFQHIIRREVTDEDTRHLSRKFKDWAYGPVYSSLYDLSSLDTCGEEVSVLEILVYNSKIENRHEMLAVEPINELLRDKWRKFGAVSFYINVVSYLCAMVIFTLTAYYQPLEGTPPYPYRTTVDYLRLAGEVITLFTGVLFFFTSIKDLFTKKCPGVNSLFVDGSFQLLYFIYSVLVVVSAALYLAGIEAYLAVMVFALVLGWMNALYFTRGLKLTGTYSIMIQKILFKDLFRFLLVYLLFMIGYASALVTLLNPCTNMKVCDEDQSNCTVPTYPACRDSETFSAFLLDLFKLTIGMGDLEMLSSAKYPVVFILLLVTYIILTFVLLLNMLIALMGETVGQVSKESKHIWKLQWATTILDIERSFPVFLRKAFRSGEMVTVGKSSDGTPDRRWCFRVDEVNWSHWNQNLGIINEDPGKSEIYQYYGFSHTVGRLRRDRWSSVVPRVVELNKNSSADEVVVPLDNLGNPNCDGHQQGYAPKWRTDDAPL
UniProt P68368: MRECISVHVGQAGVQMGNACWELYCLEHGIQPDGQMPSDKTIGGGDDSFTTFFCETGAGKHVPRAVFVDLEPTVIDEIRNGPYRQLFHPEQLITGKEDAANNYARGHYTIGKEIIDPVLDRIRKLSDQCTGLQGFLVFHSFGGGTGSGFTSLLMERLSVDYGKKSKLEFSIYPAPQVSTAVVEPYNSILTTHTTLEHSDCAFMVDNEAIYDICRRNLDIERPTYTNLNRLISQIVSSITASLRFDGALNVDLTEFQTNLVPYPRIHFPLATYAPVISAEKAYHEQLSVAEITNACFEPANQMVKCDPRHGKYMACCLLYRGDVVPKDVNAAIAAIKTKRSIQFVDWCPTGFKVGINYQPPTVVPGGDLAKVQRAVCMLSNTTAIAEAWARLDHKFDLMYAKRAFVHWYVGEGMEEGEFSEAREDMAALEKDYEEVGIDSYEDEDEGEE

T2: Sodium-driven chloride bicarbonate exchanger (Na-dependent chloride-bicarbonate exchanger) (mouse (endogenous in choroid plexus)) (UniProt Q5DTL9)
T2 sequence: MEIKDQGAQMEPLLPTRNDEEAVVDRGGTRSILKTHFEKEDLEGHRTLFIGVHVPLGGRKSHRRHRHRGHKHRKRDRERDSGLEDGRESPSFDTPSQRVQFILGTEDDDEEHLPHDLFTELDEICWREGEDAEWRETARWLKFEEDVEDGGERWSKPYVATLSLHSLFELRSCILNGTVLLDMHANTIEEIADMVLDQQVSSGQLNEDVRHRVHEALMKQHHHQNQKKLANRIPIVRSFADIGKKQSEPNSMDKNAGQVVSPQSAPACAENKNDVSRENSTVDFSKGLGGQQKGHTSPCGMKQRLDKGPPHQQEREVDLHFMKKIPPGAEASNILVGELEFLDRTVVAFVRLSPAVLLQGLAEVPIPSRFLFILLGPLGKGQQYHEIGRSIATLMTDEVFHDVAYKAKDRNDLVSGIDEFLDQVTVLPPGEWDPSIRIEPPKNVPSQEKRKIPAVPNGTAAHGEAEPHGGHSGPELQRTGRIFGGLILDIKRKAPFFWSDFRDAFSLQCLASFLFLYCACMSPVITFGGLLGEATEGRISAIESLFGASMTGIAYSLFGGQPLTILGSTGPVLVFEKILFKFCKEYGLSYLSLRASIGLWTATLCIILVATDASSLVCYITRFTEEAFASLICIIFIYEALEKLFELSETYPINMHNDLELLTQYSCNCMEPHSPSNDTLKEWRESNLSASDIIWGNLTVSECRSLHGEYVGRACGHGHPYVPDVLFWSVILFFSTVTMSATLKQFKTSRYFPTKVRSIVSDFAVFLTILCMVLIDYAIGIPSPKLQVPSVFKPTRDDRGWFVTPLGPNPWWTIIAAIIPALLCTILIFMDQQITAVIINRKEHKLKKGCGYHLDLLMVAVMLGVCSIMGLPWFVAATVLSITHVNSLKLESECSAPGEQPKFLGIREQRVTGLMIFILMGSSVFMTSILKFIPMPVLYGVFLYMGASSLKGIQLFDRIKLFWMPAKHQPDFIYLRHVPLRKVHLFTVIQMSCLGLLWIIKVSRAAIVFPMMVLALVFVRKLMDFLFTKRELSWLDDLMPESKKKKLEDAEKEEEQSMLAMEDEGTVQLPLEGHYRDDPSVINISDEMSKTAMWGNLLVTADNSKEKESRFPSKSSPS

T3: Na-K-2Cl cotransporter 1 (Solute carrier family 12 member 2) (mouse (endogenous in choroid plexus)) (UniProt P55012)
T3 sequence: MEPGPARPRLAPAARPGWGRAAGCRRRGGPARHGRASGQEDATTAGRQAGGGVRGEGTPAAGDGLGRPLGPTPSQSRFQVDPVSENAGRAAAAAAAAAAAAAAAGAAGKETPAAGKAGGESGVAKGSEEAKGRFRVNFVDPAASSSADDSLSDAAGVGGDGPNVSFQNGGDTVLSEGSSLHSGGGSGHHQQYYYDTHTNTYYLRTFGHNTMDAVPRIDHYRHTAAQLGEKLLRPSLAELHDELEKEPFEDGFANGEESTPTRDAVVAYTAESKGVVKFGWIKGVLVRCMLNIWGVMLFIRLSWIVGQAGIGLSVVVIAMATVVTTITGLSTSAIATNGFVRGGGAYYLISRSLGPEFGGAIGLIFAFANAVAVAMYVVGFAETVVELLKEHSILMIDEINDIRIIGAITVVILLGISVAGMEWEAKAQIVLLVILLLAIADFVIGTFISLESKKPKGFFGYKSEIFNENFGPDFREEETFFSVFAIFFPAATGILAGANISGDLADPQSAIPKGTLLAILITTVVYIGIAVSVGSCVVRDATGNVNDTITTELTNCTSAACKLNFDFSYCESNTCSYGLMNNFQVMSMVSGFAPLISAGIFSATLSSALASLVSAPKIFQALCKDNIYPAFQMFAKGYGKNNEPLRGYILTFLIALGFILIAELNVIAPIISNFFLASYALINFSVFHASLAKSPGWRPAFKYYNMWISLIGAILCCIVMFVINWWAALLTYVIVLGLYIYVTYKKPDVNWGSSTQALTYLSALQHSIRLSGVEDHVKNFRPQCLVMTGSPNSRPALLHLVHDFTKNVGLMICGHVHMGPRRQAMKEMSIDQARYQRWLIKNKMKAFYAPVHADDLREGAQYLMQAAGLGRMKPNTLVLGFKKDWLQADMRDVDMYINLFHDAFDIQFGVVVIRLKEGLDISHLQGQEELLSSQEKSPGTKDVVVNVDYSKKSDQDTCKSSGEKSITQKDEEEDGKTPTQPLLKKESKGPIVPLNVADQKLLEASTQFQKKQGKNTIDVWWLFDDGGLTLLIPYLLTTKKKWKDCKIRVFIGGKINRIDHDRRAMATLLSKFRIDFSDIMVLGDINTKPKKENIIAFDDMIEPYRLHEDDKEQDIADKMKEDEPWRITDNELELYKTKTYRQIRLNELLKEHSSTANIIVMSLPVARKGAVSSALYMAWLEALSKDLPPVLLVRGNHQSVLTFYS

B1: Sodium-driven chloride bicarbonate exchanger (Na-dependent chloride-bicarbonate exchanger) (protein, UniProt Q5DTL9 1-1118)
chain: T2 sequence

Experiments:
[1] = target: T1, Anion exchange protein 2 (mouse (endogenous in choroid plexus)); assay: native gel or EMSA; mouse choroid plexus homogenate, 1% digitonin, soluble proteins on 3–12% NativePAGE gels, 150 V, 1 h, 4 °C; Coomassie bands cut out for mass spectrometry, and immunoblots of native gels; co-migration
[2] = target: T2, Sodium-driven chloride bicarbonate exchanger (Na-dependent chloride-bicarbonate exchanger) (mouse (endogenous in choroid plexus)); assay: as above
[3] = target: T3, Na-K-2Cl cotransporter 1 (Solute carrier family 12 member 2) (mouse (endogenous in choroid plexus)); assay: as above
[4] = target: T3, Na-K-2Cl cotransporter 1 (Solute carrier family 12 member 2) (mouse (endogenous in choroid plexus)); assay: proximity ligation; Duolink PLA with pairs of primary antibodies on paraformaldehyde-fixed paraffin sections of mouse brain (choroid plexus epithelium)

Molecule | binding [1] | binding [2] | binding [3] | binding [4]
Spectrin beta chain, non-erythrocytic 1 (from UniProt Q62261 1-2363) | binds | binds | binds | 
Transient receptor potential cation channel V4 (from UniProt Q9EPK8 1-871) |  |  | binds | 
Tubulin alpha-4A chain (from UniProt P68368 1-448) |  |  | binds | 
B1 |  |  | binds | binds

From paper PMC7915972
